Source: article PMC12404750
Results are given in words; binding and its absence hold for the method and conditions named. Binding seen in cells or lysates may run through a third protein. These calls come from enrichment with a bait or labelling near it, and not all partners need be listed.

Chains of the proteins cited; added tags and fusions are not shown. Residues count along the entry.
UniProt Q9D5V5: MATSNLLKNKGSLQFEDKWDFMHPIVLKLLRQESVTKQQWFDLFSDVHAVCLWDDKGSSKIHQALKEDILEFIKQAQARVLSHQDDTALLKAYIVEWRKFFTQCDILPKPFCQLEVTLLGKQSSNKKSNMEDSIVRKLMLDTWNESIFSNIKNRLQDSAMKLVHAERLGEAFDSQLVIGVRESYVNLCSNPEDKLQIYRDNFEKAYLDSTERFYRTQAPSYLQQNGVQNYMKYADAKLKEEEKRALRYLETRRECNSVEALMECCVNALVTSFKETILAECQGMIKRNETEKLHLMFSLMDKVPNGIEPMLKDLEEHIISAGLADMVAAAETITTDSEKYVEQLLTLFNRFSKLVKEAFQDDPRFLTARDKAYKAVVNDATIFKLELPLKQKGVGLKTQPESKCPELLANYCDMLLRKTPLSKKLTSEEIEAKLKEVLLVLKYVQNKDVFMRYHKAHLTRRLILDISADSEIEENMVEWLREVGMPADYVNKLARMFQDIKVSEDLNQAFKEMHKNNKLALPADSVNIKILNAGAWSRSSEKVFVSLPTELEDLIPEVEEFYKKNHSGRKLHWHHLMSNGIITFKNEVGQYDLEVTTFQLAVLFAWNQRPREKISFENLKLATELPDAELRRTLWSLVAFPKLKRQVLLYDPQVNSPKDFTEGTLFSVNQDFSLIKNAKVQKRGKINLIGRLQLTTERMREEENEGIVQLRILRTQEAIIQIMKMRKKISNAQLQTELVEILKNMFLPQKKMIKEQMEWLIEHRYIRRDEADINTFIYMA
UniProt Q8BHD8: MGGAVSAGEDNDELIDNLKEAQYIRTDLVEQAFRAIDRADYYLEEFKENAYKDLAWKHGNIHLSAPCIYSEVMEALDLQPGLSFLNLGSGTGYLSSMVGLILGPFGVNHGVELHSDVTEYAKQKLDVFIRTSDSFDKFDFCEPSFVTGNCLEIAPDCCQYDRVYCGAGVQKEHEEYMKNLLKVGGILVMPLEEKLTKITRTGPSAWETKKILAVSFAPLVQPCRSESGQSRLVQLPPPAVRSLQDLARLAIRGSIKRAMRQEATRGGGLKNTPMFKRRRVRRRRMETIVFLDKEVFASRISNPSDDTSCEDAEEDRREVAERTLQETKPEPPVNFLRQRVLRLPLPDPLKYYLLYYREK
UniProt P29595, residues 1-76: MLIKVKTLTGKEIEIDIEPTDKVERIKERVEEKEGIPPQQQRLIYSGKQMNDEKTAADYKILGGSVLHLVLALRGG
UniProt P62869: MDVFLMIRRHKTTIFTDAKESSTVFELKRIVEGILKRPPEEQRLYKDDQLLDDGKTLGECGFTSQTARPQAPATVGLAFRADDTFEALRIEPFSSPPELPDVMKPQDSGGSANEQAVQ

B1: SOCS6 (protein, UniProt Q9JLY0 1-533)
chain: MKKISLKTFRKSFNLSKSKDETEFMVVQPQSLAGDFVKDDSLFGSCYGKDMASCDIGSEDEKGKNRSKSESLMGTLKRRLSAKQKTKGKGGTASTDEDTFSSASAPGGLKDVRAPRPIRSTSLRSHHYSPTPWPLRPTSSEETCIKMEMRVKALVHAASPGPVNGVRKDLRELQPRELRDLQPEPRPESRCSPSSPGDLSLHLEEHVPVVIGLMSQDYLQYTVPLDDGMCPLEGPRSCCLDTSSPMEVSAVPLPGASGAFSEDDSHVDQDLVVGPEILVDSSVNNLLIGTTGVMLQSPRGGHDDAPPLSPLLPPMQNNPIQRNFSGLSGPDLHMAESVRCHLNFDPNSAPGVARVYDSVQSSGPMVVTSLTEELKKLAKQGWYWGPITRWEAEGKLANVPDGSFLVRDSSDDRYLLSLSFRSHGKTLHTRIEHSNGRFSFYEQPDVEGHTSIVDLIEHSIRDSENGAFCYSRSRLPGSATYPVRLTNPVSRFMQVRSLQYLCRFVIRQYTRIDLIQKLPLPNKMKDYLQEKHY
B2: ASB2 (protein, UniProt Q8K0L0 1-634)
chain: MATEISTRGRQRAIGHEEYSLYSSLSEEELLQMAIEQSLADKTRGPTPAEASASSQTNHQPGHFHPWTRSPSSPENPPARAPLGLFQGVMQKYSSNLFKTSQMAAMDPVLKAIKEGDEEALKIMIQDGKNLAEPNKEGWLPLHEAAYYGQLGCLKVLQQAYPGTIDQRTLQEETALYLATCREHLDCLLSLLQAGAEPDISNKSRETPLYKACERKNAEAVRILVRYNADANHRCNRGWTALHESVSRNDLEVMEILVSGGAKVEAKNVYSITPLFVAAQSGQLEALRFLAKHGADINTQASDSASALYEASKNEHEDVVEFLLSQGADANKANKDGLLPLHVASKKGNYRIVQMLLPVTSRTRVRRSGISPLHLAAERNHDAVLEALLAARFDVNAPLAPERARLYEDRRSSALYFAVVNNNVYATELLLLAGADPNRDVISPLLVAIRHGCLRTMQLLLDHGANIDAYIATHPTAFPATIMFAMKCLSLLKFLMDLGCDGEPCFSCLYGNGPHPPAPRPGRFHDAPVDDKAPSVVQFCEFLSAPEVSRWAGPIIDVLLDYVGNVQLCSRLKEHIDSFEDWAVIKEKAEPPRPLAHLCRLRVRKAIGKYRIKLLDTLPLPGRLIRYLKYENTQ
B3: ASB3 (protein, UniProt Q9WV72 1-525)
chain: MDFTEAYSDTCSTVGLAAREGNVKILRKLLKKGRSVDVADNRGWMPIHEAAYHNAVECLQMLIHTDSSENYIKAKTFEGFCALHLAVSQGHWKITQILLEAGADPNETTLEETTPLFLAVESGRIDVLKLLLQHGANVNGSHSMSGWNSLHQASFQGNAETIRLLLKQGADRECQDDFGITPLFVAAQYGKLESMSILISSGANVNCQALDKATPLFIAAQEGHTKCVELLLSSGADPDLYCNEDNWQLPIHAAAQMGHTETLDLLIPRTNRACDTGPDKVSPVYSAVFGGREECLEMLLQNGYSPDAQMCLVFGFSSPLCMAFQKDCDFSGIVNILLKYGAQLNELHLAYCLKYEKFSMFCSFLKKGSLMVPWNHTSEFISYAVKAQTKYKAWLPHLLLAGFDPLILLCSSSWVDSASDDILIFTLEFSNWKRLPSAVEKMLSVRANSSWALQQHLASVPSLTHLCRLEIRASLKAEHLHSDIFIHQLPLPRSLQNYLLYEEVLRMNEILEPAANQDGETSKAT
B4: WSB1 (protein, UniProt O54927 1-421)
chain: MASFPPRVNEKEIVRSRTIGELLAPAAPFDKKCGGENWTVAFAPDGSYFAWSQGYRIVKLVPWSQCRKNFLLHGSKNVTNSSCLKLARQNSNGGQKNKPPEHVIDCGDIVWSLAFGSSVPEKQSRCVNIEWHRFRFGQDQLLLATGLNNGRIKIWDVYTGKLLLNLVDHIEMVRDLTFAPDGSLLLVSASRDKTLRVWDLKDDGNMVKVLRAHQNWVYSCAFSPDCSMLCSVGASKAVFLWNMDKYTMIRKLEGHHHDVVACDFSPDGALLATASYDTRVYVWDPHNGDLLMEFGHLFPSPTPIFAGGANDRWVRAVSFSHDGLHVASLADDKMVRFWRIDEDCPVQVAPLSNGLCCAFSTDGSVLAAGTHDGSVYFWATPRQVPSLQHICRMSIRRVMSTQEVQKLPVPSKILAFLSYRG
B5: LRRC41 (protein, UniProt Q8K1C9 1-807)
chain: MAAPEAWRARSCWFCEVAAATTMEATSREAAPAKSSASGPSAPPALFELCGRAVSAHMGVLESGVWALPGPILQSILPLLNIYYLERIEETALKKGLSTQAIWRRLWDELMKTRPSSLESVTCWRAKFMEAFFSHVLRGTIDVSSDKRLCDQRFSPLLHSSRHVRQLTICNMLQGATELVAEPNRRVLETLASSLHTLKFRHLLFSDVAAQQSLRQLLHQLIHHGAVSQVSLYSWPVPESALFILILTMSAGFWQPGPGSLPCRLCGEASRGRAPSRDEGSLLLGSRRPRRDAAERCAAALMATRRKSEVKQMPRAVPPTRVTRRSTQESLAIGGTDSKLYLPATSYEASGTKQPSAPAAASASSSTSSKRAPASSASQPKPLKRFKRAAGKKGPRTRQGSGAESEDLYDFVFIVAGEKEDGEEMEIGEVACGALDGSDPSCLGLPALEASQRFRSISTLELFTVPLSTEAALTLCHLLSSWVSLESLTLSYNGLGSNIFRLLDSLRALSGQAGCRLRALHLSDLFSPLPILELTRAIVRALPLLRVLSIRVDHPSQRDNPAVPENAGPPGHIVGDEEIPENCLEQLEMGFPRGAQPAPLLCSVLKASGSLQQLSLDSATFASPQDFGLVLQTLKEHNLSLKRLSFHDMNLADCQSEVLFLLKNLTLQEITFSFCRLFEKRPVQFLPEMVAAMKGNSTLKGLRLPGNRLGNAGLLALADVFSEDSSSSLCQLDISSNCIKPDGLLEFAKRLERWGRGAFGHLRLFQNWLDQDAVTAREAIRRLRATCHVVSDSWDSTQAFADYVSTM
B6: CAND1 (protein, UniProt Q6ZQ38 1-1230)
chain: MASASYHISNLLEKMTSSDKDFRFMATNDLMTELQKDSIKLDDDSERKVVKMILRLLEDKNGEVQNLAVKCLGPLVSKVKEYQVETIVDTLCTNMLSDKEQLRDISSIGLKTVIGELPPASSGSALAANVCKKITGRLTSAIAKQEDVSVQLEALDIMADMLSRQGGLLVNFHPSILTCLLPQLTSPRLAVRKRTIIALGHLVMSCGNIVFVDLIEHLLSELSKNDSMSTTRTYIQCIAAISRQAGHRIGEYLEKIIPLVVKFCNVDDDELREYCIQAFESFVRRCPKEVYPHVSTIINICLKYLTYDPNYNYDDEDEDENAMDADGGDDDDQGSDDEYSDDDDMSWKVRRAAAKCLDAVVSTRHEMLPEFYKTVSPALIARFKEREENVKADVFHAYLSLLKQTRPVQSWLCDPDAMEQGDTPLTMLQSQVPNIVKALHKQMKEKSVKTRQCCFNMLTELVNVLPGALTQHIPVLVPGIIFSLNDKSSSSNLKIDALSCLYVILCNHSPQVFHPHVQALVPPVVACVGDPFYKITSEALLVTQQLVKVIRPLDQPSSFDATPYIKDLFTCTIKRLKAADIDQEVKERAISCMGQIICNLGDNLGPDLSNTLQIFLERLKNEITRLTTVKALTLIAGSPLKIDLRPVLGEGVPILASFLRKNQRALKLGTLSALDILIKNYSDSLTAAMIDAVLDELPPLISESDMHVSQMAISFLTTLAKVYPSSLSKISGSILNELIGLVRSPLLQGGALSAMLDFFQALVVTGTNNLGYMDLLRMLTGPVYSQSTALTHKQSYYSIAKCVAALTRACPKEGPAVVGQFIQDVKNSRSTDSIRLLALLSLGEVGHHIDLSGQLELKSVILEAFSSPSEEVKSAASYALGSISVGNLPEYLPFVLQEITSQPKRQYLLLHSLKEIISSASVAGLKPYVENIWALLLKHCECAEEGTRNVVAECLGKLTLIDPETLLPRLKGYLISGSSYARSSVVTAVKFTISDHPQPIDPLLKNCIGDFLKTLEDPDLNVRRVALVTFNSAAHNKPSLIRDLLDSVLPHLYNETKVRKELIREVEMGPFKHTVDDGLDIRKAAFECMYTLLDSCLDRLDIFEFLNHVEDGLKDHYDIKMLTFLMLVRLSTLCPSAVLQRLDRLVEPLRATCTTKVKANSVKQEFEKQDELKRSAMRAVAALLTIPEAEKSPLMSEFQSQISSNPELAAIFESIQKDSSSTNLESMDTS

Experiments:
[1] = target: Cullin 5 (mouse (endogenous in cultured HSPCs and bone marrow cells)) (UniProt Q9D5V5); experiment: affinity purification with mass spectrometry; anti-CUL5 antibody (4 ug/mg) or rabbit IgG isotype control, Dynabeads; lysate (1% NP-40, 100 mM NaCl, 50 mM Tris-HCl) of HSPCs expanded from WT CD34lo HSCs with TPO, SCF and IL-3, bortezomib 50 nM for 2 hours before harvest; overnight at 4°C; tandem mass spectrometry
[2] = target: T1, LRRC41 (mouse (endogenous in cultured HSPCs and bone marrow cells)) (UniProt Q8K1C9); experiment: affinity purification with mass spectrometry; anti-LRRC41 antibody (4 ug/mg) or rabbit IgG, Dynabeads; WT bone marrow cells stimulated with IL-3 (20 ng/mL), cross-linked with disuccinimidyl dibutyric urea (1 mM, 10 minutes) before lysis; overnight at 4°C; mass spectrometry
T1 sequence: B5 chain

| Molecule | binding [1] | binding [2] |
| --- | --- | --- |
| PCMTD2 (from UniProt Q8BHD8 1-359) | binds | – |
| Cullin 5 (from UniProt Q9D5V5 1-780) | – | binds |
| NEDD8 (from UniProt P29595 1-76) | binds | binds |
| ELOB (from UniProt P62869 1-118) | – | binds |
| B1 | binds | – |
| B2 | binds | – |
| B3 | binds | – |
| B4 | binds | – |
| B5 | binds | – |
| B6 | – | binds |
